Laboratory results: PubChem BioAssay AID540276 (National Center for Advancing Translational Sciences (NCATS), 2011)
The campaign covered roughly 300,000 compounds. About 5,400 (1.8%) were called active. The inconclusive results got no clear call from the source; some entries with a clear call stand among them for comparison. Calls come from the whole dose curve; tested in HEK293 cells. A potency beside an inconclusive call is a rough fit, not a confirmed value.

Experiment: qHTS for inhibitors of binding or entry into cells for Marburg Virus
Conditions: Marburg virus pseudotyped entry inhibition, cell reporter; series mostly up to 37.8 µM
Potency is the fitted concentration of half-maximal effect.

SMILES	Potency
Cc1nn(CC(=O)O)c(C)c1C	inactive
Cc1cccc(-c2nnc(SCC(=O)c3ccc(O)cc3O)n2C)c1	inactive
CCOC(=O)C1=C(O)C(=O)N(c2ccc(S(N)(=O)=O)cc2)C1c1ccc(Br)cc1 (stereo not given)	inconclusive: 2.24 µM [activator, full curve, poor fit]
CCC(C)N(C(=O)c1csnn1)C(C(=O)NC1CCCC1)c1ccccc1F (stereo not given)	inconclusive: 15.8 µM [inhibitor, partial curve, poor fit]
CCCOc1ccc(N2C(=O)CC(NCCNc3ccc([N+](=O)[O-])cn3)C2=O)cc1 (stereo not given)	inactive
CCOc1ccccc1NC(=O)NCCC1=CCCCC1	inconclusive: 22.4 µM [inhibitor, single point]
N#Cc1ccc(NC(=O)CCc2nc3ccccc3s2)cc1	inactive
CCCCNC(=O)/C(C#N)=C/c1ccc(C(=O)OC)cc1	inconclusive: 1 µM [inhibitor, full curve, poor fit]
Cc1ccc(OCc2nnc(SCc3ccc(C#N)cc3)n2-c2ccc(C)cc2)cc1	inconclusive: 25.9 µM [inhibitor, single point]
Cn1c(=O)c(=O)n(C)c2cc(N3CCCC3)c(NC(=O)c3ccc(C(C)(C)C)cc3)cc21	inactive
COc1cccc(CNC(=O)CN(c2ccc(C(C)C)cc2)S(=O)(=O)c2c(C)n[nH]c2C)c1	inconclusive: 22.4 µM [inhibitor, single point]
COC(=O)c1ccc(CSc2ccc(S(=O)(=O)N3CCCCC3)cn2)cc1	inconclusive: 0.447 µM [activator, full curve, poor fit]
CC[n+]1cccc(-c2nc3ccccc3s2)c1	inactive
OCC1(Cc2ccccc2)CCN(C2CCN(c3ccc(F)c(F)c3)CC2)CC1	inconclusive: 11.2 µM [inhibitor, single point]
COc1cccc([C@@H]2Oc3ccc(Br)cc3C(=O)[C@@H]2OC(=O)Nc2cc(OC)c(OC)c(OC)c2)c1	inactive
CC(C)Cc1ccc(C(C)C(=O)Nc2nccs2)cc1 (stereo not given)	inconclusive: 5.8 µM [inhibitor, partial curve, poor fit]
O=C(CC1CCCCC1)NCCOc1ccccc1	inconclusive: 1.12 µM [inhibitor, single point]
CCC(C)[C@H](NC(=O)N1CCCC1)C(=O)O (stereo not given in full)	inactive
O=C(Nn1cc(C(=O)Nc2ccccc2F)c2ccccc2c1=O)c1cnccn1	inconclusive: 7.94 µM [inhibitor, partial curve, poor fit]
COc1cc(C(=O)NC2CCN(Cc3ccccc3)CC2)cc(Cl)c1OC(C)C	inconclusive: 20.6 µM [inhibitor, single point]

Exported field by field: part of the list above.
O=C(Nn1cc(C(=O)Nc2ccccc2F)c2ccccc2c1=O)c1cnccn1
  Potency: inconclusive: 7.94 µM [inhibitor, partial curve, poor fit]
COc1cc(C(=O)NC2CCN(Cc3ccccc3)CC2)cc(Cl)c1OC(C)C
  Potency: inconclusive: 20.6 µM [inhibitor, single point]
